Values from PubChem BioAssay AID743454 (Peter MacCallum Cancer Centre, 2014)
Assay: 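Search for knock-downs that restore vorinostat killing in resistant colon cancer cells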 (primary screen). Cells: human HCT116-VR colon cancer cells, selected for vorinostat resistance. Knock-down reagent: siRNA pool against human genes, 40 nM siRNA pool. Time to read-out: vorinostat for 24 h, read-out about 72 h after transfection. Conditions: vorinostat at 2.5 µM final. Measured: 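Cell viability by CellTiter-Fluor and caspase 3/7 activity by luminescence, each scaled to mock wells per plate, duplicates averaged, then robust z-scored over all plates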. Direction: viability robust z-score: higher = more viable cells than screen typical; caspase robust z-score: higher = more caspase 3/7 activity than screen typical. Call rule: 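a knock-down is a hit when classed RV1 or RV2 for lowered viability, or CA1 or CA2 for caspase activation; those lethal without drug were dropped; hits were retested singly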.
This is an unselected part of about 18,000 reagents tested. 450 of all reagents (2.5%) were called active. 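Single biological run; no consistent viability z cut-off exists, so the class columns, not z-scores, define the calls.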

gene	viability hit class	caspase hit class	viability robust z-score	caspase robust z-score	activity call
PRMT2IP	no change	no change	0.11	1.52	inactive
ACOX2	no change	no change	0.48	0.63	inactive
FGF23	no change	no change	-1.54	0.58	inactive
UBTD1	no change	no change	1.64	-0.75	inactive
PXK	no change	no change	0.7	0.01	inactive
RECQL5	no change	no change	1.1	-0.15	inactive
TSEN54	no change	no change	-0.86	0.32	inactive
PRR20A	no change	no change	0.38	-0.4	inactive
C2orf76	no change	no change	-1.74	0.4	inactive
PHB2	no change	no change	-2.19	1.01	inactive
CTBP1-DT	no change	no change	-0.03	-0.82	inactive
HEATR9	no change	no change	0.92	-1.31	inactive
SEZ6L2	no change	no change	1.21	-0.39	inactive
AOC2	no change	no change	-0.44	-1.03	inactive
C1orf105	no change	no change	-0.18	-0.22	inactive
PPP1R9A	no change	no change	1.28	-1.02	inactive
PTGER4	RV2 (reduced viability)	no change	-4.98	5.04	active
CMTM1	no change	CA1 (caspase activation)	-0.64	5.31	active
WFDC10B	no change	no change	-1.48	0.06	inactive
CCL20	no change	no change	-0.15	-0.82	inactive
PEX16	no change	no change	-0.44	1.03	inactive
ZNF662	no change	no change	-0.54	-0.36	inactive
EIF5	no change	no change	-1.82	2.42	inactive
CTNND2	no change	no change	0.76	-0.32	inactive
MLC1	no change	no change	-0.94	0.91	inactive
CARMIL2	no change	no change	0.86	2.86	inactive
GHR	no change	no change	-0.69	-1.54	inactive
SCGB1D1	no change	no change	-0.44	-0.46	inactive
KIF5C	no change	no change	0.12	-0.32	inactive
HSH2D	no change	no change	-0.66	-0.93	inactive
SYT17	no change	no change	0.25	-1.36	inactive
NLRP6	no change	no change	0.38	1.81	inactive
ALMS1	RV2 (reduced viability)	no change	-3	-0.13	active
PHF21A	no change	no change	0.63	-0.94	inactive
ING3	no change	no change	-1.04	-1.45	inactive
KAT6A	no change	no change	0.33	0.41	inactive
COPG2	no change	no change	0.87	-0.02	inactive
FGF1	no change	no change	-0.32	3.95	inactive
MET	no change	no change	0.52	-0.96	inactive
ELOVL7	no change	no change	1.2	0.98	inactive
CLCA2	no change	no change	1.33	1.56	inactive
TLR4	no change	no change	-0.88	-0.53	inactive
RPN1	no change	no change	-0.84	1.82	inactive
IFI44L	no change	no change	-0.04	1.11	inactive
PPP2R3C	no change	no change	-0.16	-0.98	inactive
ABCC3	no change	no change	-0.34	2.51	inactive
ITPKB	no change	no change	-0.4	1.44	inactive
PROX1	no change	no change	0.33	2.68	inactive
TTC3	no change	no change	0.33	3.34	inactive
JUP	no change	no change	0.81	1.32	inactive
PPM1F	no change	no change	0.45	-0.66	inactive
MSN	no change	no change	0.64	-0.84	inactive
FOXJ3	no change	no change	-0.29	-0.88	inactive
CST9	no change	no change	1.23	0.04	inactive
PLA2G12A	no change	no change	0.3	0.37	inactive
MLYCD	no change	no change	-0.82	-0.86	inactive
BCHE	no change	no change	1.93	0.13	inactive
SLITRK4	no change	no change	0.55	-0.39	inactive
LY75	no change	no change	0.74	-0.61	inactive
TMEM205	no change	no change	-1.67	-0.44	inactive
NOS2	no change	no change	0.57	-0.08	inactive
VNN3P	no change	no change	0.5	2.56	inactive
ERC2	no change	no change	-0.99	-0.94	inactive
SLC25A27	no change	no change	-1.76	2	inactive
EIF3A	no change	no change	-3	-1.09	inactive
YPEL1	no change	no change	-0.96	-0.32	inactive
LRCH3	no change	no change	-0.88	0.12	inactive
MNDA	no change	no change	0.42	1.36	inactive
VPS37D	no change	no change	-0.84	-0.03	inactive
LGALS9C	no change	no change	-1.12	-0.94	inactive
RUFY1	no change	no change	0.76	1.79	inactive
RWDD1	no change	no change	0.44	-0.87	inactive
HSPA6	no change	CA1 (caspase activation)	-1.49	6.02	active

Quoted from the listing, 10 entries:
gene	viability hit class	caspase hit class	viability robust z-score	caspase robust z-score	activity call
ACOX2	no change	no change	0.48	0.63	inactive
FGF23	no change	no change	-1.54	0.58	inactive
UBTD1	no change	no change	1.64	-0.75	inactive
PXK	no change	no change	0.7	0.01	inactive
RECQL5	no change	no change	1.1	-0.15	inactive
TSEN54	no change	no change	-0.86	0.32	inactive
PRR20A	no change	no change	0.38	-0.4	inactive
C2orf76	no change	no change	-1.74	0.4	inactive
PHB2	no change	no change	-2.19	1.01	inactive
CTBP1-DT	no change	no change	-0.03	-0.82	inactive
